In PubChem BioAssay AID504834 (National Center for Advancing Translational Sciences (NCATS), 2011):
About 22,000 (6.9%) of roughly 320,000 compounds were called active. This list was built around the results that the source calls inconclusive (neither active nor inactive); the mix of calls is not that of the screen. The call rests on the fitted dose curve; in most records, active means well fitted inhibition curve with a large enough effect; inconclusive means small, poorly fitted or top-dose-only effect, or another doubt; inactive means no such curve, though single readings can be large or run the other way. Potencies of inconclusive entries are doubtful fits and often do not repeat.

assay: Primary qHTS for delayed death inhibitors of the malarial parasite plastid, 96 hour incubation; conditions: P. falciparum luciferase reporter growth; series mostly up to 28.7 µM; activity change, negative = inhibition: at the top concentration
How it was run: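 Luminescence readout: decreased luciferase signal marks inhibited growth of reporter-expressing P. falciparum in infected red cells (2% hematocrit, 0.05% parasitemia final), exposed to compound two generations (96 h, 37 C, 5% CO2).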
On the % scale 0 is the no-effect control and ±100 the full control effect; potency means the concentration at half of the fitted maximal effect.

SMILES	Potency	activity change, negative = inhibition
Cc1ccccc1S(=O)(=O)Cc1ccc(C(=O)N2CCN(c3ccccc3F)CC2)o1	inconclusive: 13.1 µM [inhibitor, single point]	
CCOc1ccc(OCCC(=O)OCC(=O)Nc2ccc(Cl)cn2)cc1		inactive: 29.6%
CC(=O)C1=C(C)Nc2ncnn2C1c1ccccc1F (stereo not drawn)		inactive: 17%
O=C(NCc1ccc2[nH]c3c(c2c1)CCCC3)c1ccc(S(=O)(=O)N2CCOCC2)cc1	inconclusive: 14.7 µM [inhibitor, single point]	
COc1ccc(-n2nc(C(=O)NCC(=O)Nc3ccccn3)c3ccccc3c2=O)cc1Cl	active: 9.28 µM	
CCCC(=O)N(CCN(C(=O)CCC)c1ccccc1)c1ccccc1	inconclusive: 10.4 µM [inhibitor, partial curve, poor fit]	
CC1CCN(C(=O)CC2C(=O)Nc3c2c(=O)n(C)c(=O)n3Cc2ccccc2)CC1 (stereo not drawn)	inconclusive: 10.4 µM [inhibitor, partial curve]	
Cc1c(NC(=O)CN2CCN(C(=O)c3ccco3)CC2)c(=O)n(-c2ccccc2)n1C	inconclusive: 0.0928 µM [inhibitor, full curve, poor fit]	
COC(CNC(=O)CN1C(=O)COc2ccc(S(=O)(=O)N3CCOCC3)cc21)OC	inconclusive: 11.7 µM [inhibitor, partial curve]	
C=CCOC(=O)CCP(=O)(CCC(=O)OCC=C)c1ccccc1	inconclusive: 5.22 µM [inhibitor, partial curve]	
Cc1cc(C)c(C#N)c(SC(C(=O)NC(C)(C)C)c2ccccc2)n1 (stereo not drawn)	inconclusive: 11.7 µM [inhibitor, single point]	
CCCCN(C(=O)/C=C/c1ccc(OCC(C)C)c(OCC)c1)c1c(N)n(CCC)c(=O)[nH]c1=O	inconclusive: 18.5 µM [inhibitor, single point]	
COc1ccc(CN2CCN(CCCc3ccccc3)C(CCO)C2)c(O)c1 (stereo not drawn)	active: 2.94 µM	
Cc1cc(C)n2nc(C(=O)Nc3cccc(S(=O)(=O)N(C)c4ccccc4)c3)nc2n1	inconclusive: 10.4 µM [inhibitor, single point]	
CCCCn1c(SCC(=O)NCC2CCCO2)nc2ccc(N3CCOCC3)cc2c1=O (stereo not drawn)	inconclusive: 5.22 µM [inhibitor, partial curve]	
CCN1C(=O)[C@H]2[C@@H](c3ccc(C)cc3)N3C(=O)N(c4cccc(F)c4)C(=O)[C@@]3(CC)[C@H]2C1=O	inconclusive: 18.5 µM [inhibitor, single point]	
Cc1ccc2nc(-c3ccncc3)cc(C(=O)Nc3ccc(F)cc3C)c2c1	inconclusive: 10.4 µM [inhibitor, partial curve]	
COc1cc([N+](=O)[O-])ccc1N	active: 9.28 µM	
O=C(Nc1ccc(-c2cn3ccsc3n2)cc1)C1CC1	active: 9.28 µM	
CC(C)CNC1=CC(=O)CC(c2ccco2)C1 (stereo not drawn)	inconclusive: 8.28 µM [inhibitor, partial curve]	
CCOc1ccc(NC(=O)CN(C)C(=O)c2ccc(OCc3ccccc3)c(OC)c2)cc1OCC	inconclusive: 0.37 µM [inhibitor, partial curve]	

Not a retest: entries from further up.
SMILES	Potency	activity change, negative = inhibition
CCOc1ccc(OCCC(=O)OCC(=O)Nc2ccc(Cl)cn2)cc1		inactive: 29.6%
CC(=O)C1=C(C)Nc2ncnn2C1c1ccccc1F (stereo not drawn)		inactive: 17%

Arranged by molecular weight (low to high): part of the list above.
SMILES	Potency	activity change, negative = inhibition
CC(C)CNC1=CC(=O)CC(c2ccco2)C1 (stereo not drawn)	inconclusive: 8.28 µM [inhibitor, partial curve]	
COc1ccc(CN2CCN(CCCc3ccccc3)C(CCO)C2)c(O)c1 (stereo not drawn)	active: 2.94 µM	
CCCCn1c(SCC(=O)NCC2CCCO2)nc2ccc(N3CCOCC3)cc2c1=O (stereo not drawn)	inconclusive: 5.22 µM [inhibitor, partial curve]	

Later entries.

SMILES	Potency	activity change, negative = inhibition
CC(C)N1C(=O)CSC1c1ccc(Br)cc1 (stereo not drawn)	inconclusive: 13.1 µM [inhibitor, single point]	
CC(C)c1ccc(NC(=O)/C(C#N)=C/c2ccncc2)cc1	inconclusive: 18.5 µM [inhibitor, single point]	
CCc1cc(Cn2nc(-c3ccccc3)cc2C(=O)NCC2CC2)on1	inconclusive: 18.5 µM [inhibitor, single point]	
CC(C)NC(=S)N=Nc1c(O)[nH]c2ccc(C(C)C)cc12	inconclusive: 0.131 µM [inhibitor, full curve, poor fit]	
O=C(O)c1cccc(N2C(=O)CSC2c2ccccc2)c1 (stereo not drawn)	inconclusive: 1.04 µM [inhibitor, full curve]	
CCCN1Cc2cccc(C(=O)Nc3ccc(C)cc3)c2C1=O		inactive: 69.8%
CCc1nc(SCC(=O)c2ccc3c(c2)OCCO3)c2ccccc2n1	active: 10.4 µM	
NC(Cc1ccc(OC(F)F)cc1)C(=O)O (stereo not drawn)		inactive: -9.26%
Cc1ccc(Nc2cc(C)nc3c(C)cccc23)cc1	inconclusive: 18.5 µM [inhibitor, single point]	
COc1ccc(/C=C/C(=O)Nc2cccc(S(=O)(=O)N3CCCC3)c2)cc1OC	inconclusive: 2.33 µM [inhibitor, full curve]	
CSC1=NCCN1C(=O)c1c(F)cccc1F	inconclusive: 4.15 µM [inhibitor, single point]	
Cc1nc2c(nnn2Cc2ccccc2)c(=O)[nH]1		inactive: -8.08%
CC(=O)NC(=S)Nc1ccc(NC(=O)COc2ccc(Cl)cc2Cl)cc1	inconclusive: 0.738 µM [inhibitor, partial curve, poor fit]	
O=C(c1cnn2c(C(F)(F)F)cc(-c3cccs3)nc12)N1CCN(Cc2ccccc2)CC1	inconclusive: 18.5 µM [inhibitor, single point]	
COCCn1c(SCC(=O)NC(C)c2ccc(F)cc2)nc2ccccc21 (stereo not drawn)		inactive: 16.3%
O=C(O)COc1ccc(NC(=O)C(c2ccccc2)c2ccccc2)cc1	inconclusive: 16.5 µM [inhibitor, single point]	
COCC(=O)N(Cc1cc2ccc(C)cc2[nH]c1=O)c1cccc(C)c1	inconclusive: 18.5 µM [inhibitor, partial curve, poor fit]	
O=C(NCCc1ccccc1)C1CCN(c2ncccn2)CC1	inconclusive: 10.4 µM [inhibitor, single point]	
O=C1c2cccc([N+](=O)[O-])c2C(=O)N1CCO	inconclusive: 3.29 µM [inhibitor, partial curve, poor fit]	
Cc1ccc(C2=CC(=O)CC(C)(C)C2)cc1	inconclusive: 16.5 µM [inhibitor, single point]	
Cc1cccc(CNc2ncnc3ccc(-c4cccc(C)c4)cc23)c1	active: 3.7 µM	
